For at least one compound, name, drawing or mass did not settle the structure.
Tested on: isolated pancreatic islets
Experiment: Cellular hypoxia in isolated islets (pimonidazole adducts)
Type: cell-based, mouse
Conditions: islets treated with GKA50 in the presence of 50 μM nifedipine or 100 μM diaxozide
Procedure: For experiments using the hypoxic marker pimonidazole, islets were cultured overnight in RPMI 1640 with 11 mM glucose and fasted for 1 hour in RPMI 1640 with 5.5 mM glucose. Subsequently islets were moved to medium containing 5.5 mM, 11 mM or 22 mM glucose, either with or without the glucokinase activator 10 μM of the glucokinase activator GKA50 (Sigma), 50 μM nifedipine (Sigma) or 100 μM diaxozide (Sigma) as indicated (FIGS. 1A and B). Islets were cultured during 8 hours before lysis. During the last 2 hours pimonidazole (Hypoxyprobe, HPI, Inc) was added to the medium. The hypoxic sample were cultured under 8% O2 during the last 2 hours before the lysis.
Islets were sonicated in RIPA buffer (50 mM Tris-HCl pH7.4, 150 mM NaCl, 1% NP-40, 0.5% Na deoxycholate, 0.1% SDS, 1 mM EDTA, protease inhibitor mix (Complete-Mini, Roche), 0.5 mM phenylmethylsulfonyl fluoride (PMSF) and 0.5 mM dithiothreitol). Lysates were cleared by centrifugation for 30 min at 14.000 r.p.m., and proteins were separated by SDS-PAGE and blotted onto nitrocellulose membranes. […]

Structure (SMILES): COC(=O)C1=C(C)NC(C)=C(C(=O)OC)C1c1ccccc1[N+](=O)[O-] [nifedipine]
- levels of pimonidazole adducts: no decrease in levels of pimonidazole adducts

— patent US12491172B2, “Treatment of diabetes” (priority 2019, dated 2025)
